Reference: the supplement of paper PMC10849652
The list shows a part of the results. Residues, ends and D or L forms follow the SMILES beside them. *: point of attachment. Cbz = O=C(OCc1ccccc1)*

Chains of the proteins cited; added tags and fusions are not shown. Lines headed by an entry give the natural chain unless they say otherwise; changes in a name come on top.
UniProt Q15404: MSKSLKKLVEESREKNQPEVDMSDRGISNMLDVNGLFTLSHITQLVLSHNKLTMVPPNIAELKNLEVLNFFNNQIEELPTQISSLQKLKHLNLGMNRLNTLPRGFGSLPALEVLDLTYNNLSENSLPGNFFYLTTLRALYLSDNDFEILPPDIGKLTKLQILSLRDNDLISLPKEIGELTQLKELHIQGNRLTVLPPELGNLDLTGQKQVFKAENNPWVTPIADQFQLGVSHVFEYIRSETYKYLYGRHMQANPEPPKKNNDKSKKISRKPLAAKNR
UniProt Q9Y265, whole entry, looked up: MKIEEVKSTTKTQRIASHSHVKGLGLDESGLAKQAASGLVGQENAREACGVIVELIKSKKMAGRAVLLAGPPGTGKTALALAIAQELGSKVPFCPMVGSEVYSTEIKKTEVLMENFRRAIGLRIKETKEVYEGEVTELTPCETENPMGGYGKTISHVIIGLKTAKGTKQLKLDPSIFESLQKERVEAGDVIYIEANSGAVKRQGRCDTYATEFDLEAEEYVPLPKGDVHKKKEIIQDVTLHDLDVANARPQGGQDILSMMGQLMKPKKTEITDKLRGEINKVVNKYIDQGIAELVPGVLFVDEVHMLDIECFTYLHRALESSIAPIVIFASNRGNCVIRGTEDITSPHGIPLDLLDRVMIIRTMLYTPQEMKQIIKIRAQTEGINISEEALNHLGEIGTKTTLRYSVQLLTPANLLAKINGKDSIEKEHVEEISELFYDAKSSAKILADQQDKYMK
UniProt Q969E2: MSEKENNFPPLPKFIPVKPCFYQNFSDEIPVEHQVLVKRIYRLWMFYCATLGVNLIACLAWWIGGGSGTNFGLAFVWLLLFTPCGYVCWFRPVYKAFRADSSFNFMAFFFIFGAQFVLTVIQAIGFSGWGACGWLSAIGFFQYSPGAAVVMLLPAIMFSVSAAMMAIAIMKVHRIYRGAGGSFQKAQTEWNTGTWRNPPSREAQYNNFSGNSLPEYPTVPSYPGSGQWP
UniProt P31040: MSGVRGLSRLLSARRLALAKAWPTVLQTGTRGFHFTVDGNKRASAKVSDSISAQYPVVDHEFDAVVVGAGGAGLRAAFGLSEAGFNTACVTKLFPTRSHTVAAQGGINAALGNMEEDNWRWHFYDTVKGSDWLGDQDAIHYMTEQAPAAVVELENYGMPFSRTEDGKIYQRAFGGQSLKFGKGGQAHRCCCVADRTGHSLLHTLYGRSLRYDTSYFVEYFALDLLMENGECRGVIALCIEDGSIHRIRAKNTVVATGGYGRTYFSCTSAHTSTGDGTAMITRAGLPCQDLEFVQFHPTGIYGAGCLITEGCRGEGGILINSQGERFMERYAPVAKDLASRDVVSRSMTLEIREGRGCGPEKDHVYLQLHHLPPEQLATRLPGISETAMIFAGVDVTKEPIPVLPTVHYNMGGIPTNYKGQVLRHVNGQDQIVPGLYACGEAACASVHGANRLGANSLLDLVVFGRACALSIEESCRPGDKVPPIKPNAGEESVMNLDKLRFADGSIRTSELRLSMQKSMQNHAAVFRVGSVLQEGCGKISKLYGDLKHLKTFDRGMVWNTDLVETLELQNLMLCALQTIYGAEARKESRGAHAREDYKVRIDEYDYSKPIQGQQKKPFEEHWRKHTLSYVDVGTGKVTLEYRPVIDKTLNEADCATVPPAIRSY
UniProt Q9BY50: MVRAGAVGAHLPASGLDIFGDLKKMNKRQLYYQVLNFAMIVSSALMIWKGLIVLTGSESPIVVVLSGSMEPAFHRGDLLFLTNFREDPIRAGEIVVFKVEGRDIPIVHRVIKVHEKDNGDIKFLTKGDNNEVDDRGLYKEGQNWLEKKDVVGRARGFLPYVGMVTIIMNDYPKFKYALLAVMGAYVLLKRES
UniProt Q8N488: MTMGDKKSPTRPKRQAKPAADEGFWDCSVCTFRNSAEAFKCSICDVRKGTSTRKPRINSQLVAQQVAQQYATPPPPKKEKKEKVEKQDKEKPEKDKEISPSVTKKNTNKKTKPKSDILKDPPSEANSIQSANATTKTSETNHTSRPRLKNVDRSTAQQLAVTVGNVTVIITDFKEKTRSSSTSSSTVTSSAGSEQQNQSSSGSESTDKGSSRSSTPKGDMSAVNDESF
UniProt Q6P3W7: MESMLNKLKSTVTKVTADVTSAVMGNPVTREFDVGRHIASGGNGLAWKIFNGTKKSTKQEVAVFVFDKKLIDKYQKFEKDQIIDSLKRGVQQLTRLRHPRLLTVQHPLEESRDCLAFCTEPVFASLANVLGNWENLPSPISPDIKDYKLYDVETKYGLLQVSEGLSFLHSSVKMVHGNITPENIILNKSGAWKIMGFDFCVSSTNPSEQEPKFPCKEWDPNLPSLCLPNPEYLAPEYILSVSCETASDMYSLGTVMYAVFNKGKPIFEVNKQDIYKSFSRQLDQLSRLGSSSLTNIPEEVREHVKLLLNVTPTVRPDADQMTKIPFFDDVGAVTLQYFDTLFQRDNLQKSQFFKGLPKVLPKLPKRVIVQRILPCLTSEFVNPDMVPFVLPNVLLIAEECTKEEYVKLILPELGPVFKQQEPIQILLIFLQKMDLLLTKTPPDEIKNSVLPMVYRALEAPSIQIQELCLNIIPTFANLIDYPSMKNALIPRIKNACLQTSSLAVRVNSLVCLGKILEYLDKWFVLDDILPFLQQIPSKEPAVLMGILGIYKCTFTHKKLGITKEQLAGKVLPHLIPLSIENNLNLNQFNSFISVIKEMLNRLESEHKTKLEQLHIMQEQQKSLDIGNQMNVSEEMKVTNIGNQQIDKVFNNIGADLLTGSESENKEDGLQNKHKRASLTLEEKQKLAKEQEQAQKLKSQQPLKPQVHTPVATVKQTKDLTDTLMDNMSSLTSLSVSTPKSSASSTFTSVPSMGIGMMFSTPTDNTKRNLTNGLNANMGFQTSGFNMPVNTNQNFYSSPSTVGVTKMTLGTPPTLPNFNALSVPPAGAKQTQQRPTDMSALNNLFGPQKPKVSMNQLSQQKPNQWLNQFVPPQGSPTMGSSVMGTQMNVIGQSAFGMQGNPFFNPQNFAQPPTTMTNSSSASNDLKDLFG
UniProt Q15437: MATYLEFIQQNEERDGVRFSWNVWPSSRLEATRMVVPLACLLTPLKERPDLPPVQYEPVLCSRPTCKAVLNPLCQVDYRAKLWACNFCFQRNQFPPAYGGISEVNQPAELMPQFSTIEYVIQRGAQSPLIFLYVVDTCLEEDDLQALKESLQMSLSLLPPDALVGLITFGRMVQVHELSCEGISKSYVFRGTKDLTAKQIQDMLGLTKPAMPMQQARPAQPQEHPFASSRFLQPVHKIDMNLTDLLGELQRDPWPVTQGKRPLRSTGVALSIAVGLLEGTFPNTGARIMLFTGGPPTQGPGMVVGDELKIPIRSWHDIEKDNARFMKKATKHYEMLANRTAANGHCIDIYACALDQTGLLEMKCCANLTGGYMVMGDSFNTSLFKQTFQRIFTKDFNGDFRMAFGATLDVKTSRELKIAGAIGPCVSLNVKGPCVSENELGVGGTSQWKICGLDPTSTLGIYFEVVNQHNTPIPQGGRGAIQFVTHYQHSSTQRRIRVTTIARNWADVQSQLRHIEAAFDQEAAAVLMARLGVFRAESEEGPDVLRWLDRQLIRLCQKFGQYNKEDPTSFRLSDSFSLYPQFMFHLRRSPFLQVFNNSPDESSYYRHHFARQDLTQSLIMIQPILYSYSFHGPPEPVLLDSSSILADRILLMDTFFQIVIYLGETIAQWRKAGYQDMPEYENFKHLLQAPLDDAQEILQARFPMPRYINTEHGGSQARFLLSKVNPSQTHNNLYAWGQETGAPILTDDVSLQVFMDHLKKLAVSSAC
UniProt O75396: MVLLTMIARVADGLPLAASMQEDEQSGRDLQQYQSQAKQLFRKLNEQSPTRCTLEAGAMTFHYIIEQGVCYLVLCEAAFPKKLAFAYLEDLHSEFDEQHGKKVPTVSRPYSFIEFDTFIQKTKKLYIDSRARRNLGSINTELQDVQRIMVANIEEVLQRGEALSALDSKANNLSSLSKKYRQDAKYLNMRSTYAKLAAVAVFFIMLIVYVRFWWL
UniProt Q8WTV0: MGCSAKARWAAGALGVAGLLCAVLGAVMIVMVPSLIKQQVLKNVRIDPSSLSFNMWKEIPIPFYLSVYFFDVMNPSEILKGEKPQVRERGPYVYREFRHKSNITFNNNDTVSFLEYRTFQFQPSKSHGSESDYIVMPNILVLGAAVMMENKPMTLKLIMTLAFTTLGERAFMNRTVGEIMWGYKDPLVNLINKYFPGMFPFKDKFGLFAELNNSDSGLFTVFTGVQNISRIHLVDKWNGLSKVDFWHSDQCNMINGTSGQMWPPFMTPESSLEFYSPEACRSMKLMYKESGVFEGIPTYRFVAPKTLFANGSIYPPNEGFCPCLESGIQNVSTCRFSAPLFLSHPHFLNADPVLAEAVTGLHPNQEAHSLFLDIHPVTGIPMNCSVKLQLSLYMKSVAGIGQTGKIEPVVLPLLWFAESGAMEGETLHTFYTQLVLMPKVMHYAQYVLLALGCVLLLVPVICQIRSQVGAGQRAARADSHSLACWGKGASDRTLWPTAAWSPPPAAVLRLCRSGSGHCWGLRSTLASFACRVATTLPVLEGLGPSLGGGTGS
UniProt Q9Y3Z3: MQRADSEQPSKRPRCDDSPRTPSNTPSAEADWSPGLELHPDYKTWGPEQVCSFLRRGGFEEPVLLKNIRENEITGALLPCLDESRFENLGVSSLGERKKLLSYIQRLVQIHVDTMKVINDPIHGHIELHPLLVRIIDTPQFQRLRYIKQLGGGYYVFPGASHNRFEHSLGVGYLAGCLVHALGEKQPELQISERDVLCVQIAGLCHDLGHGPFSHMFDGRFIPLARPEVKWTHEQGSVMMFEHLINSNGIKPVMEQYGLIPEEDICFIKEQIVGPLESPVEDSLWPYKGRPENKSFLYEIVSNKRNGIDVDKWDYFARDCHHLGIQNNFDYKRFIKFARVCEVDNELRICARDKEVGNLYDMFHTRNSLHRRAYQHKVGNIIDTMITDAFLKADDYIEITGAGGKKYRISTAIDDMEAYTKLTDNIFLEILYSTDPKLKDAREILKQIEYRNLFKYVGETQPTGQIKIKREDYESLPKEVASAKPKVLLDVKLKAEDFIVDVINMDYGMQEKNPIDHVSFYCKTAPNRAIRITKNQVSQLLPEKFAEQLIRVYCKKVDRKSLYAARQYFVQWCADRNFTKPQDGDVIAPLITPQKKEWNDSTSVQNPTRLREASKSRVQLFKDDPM
UniProt P25815: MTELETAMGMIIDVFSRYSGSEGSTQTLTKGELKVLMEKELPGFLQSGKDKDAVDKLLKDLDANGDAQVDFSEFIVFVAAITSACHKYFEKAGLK
UniProt Q9BWG6: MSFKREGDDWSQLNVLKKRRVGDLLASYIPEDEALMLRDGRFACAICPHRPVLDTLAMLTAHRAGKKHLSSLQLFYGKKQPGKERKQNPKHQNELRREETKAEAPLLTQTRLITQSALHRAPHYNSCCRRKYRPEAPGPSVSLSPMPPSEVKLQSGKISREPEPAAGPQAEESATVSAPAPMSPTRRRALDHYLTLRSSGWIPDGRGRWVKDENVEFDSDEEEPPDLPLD
UniProt P82979: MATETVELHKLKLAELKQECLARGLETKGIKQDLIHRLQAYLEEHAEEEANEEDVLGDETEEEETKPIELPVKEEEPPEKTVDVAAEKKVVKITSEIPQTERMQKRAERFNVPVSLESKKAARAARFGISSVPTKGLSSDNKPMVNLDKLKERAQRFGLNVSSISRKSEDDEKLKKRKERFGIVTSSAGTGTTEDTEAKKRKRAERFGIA
UniProt Q6IQ49: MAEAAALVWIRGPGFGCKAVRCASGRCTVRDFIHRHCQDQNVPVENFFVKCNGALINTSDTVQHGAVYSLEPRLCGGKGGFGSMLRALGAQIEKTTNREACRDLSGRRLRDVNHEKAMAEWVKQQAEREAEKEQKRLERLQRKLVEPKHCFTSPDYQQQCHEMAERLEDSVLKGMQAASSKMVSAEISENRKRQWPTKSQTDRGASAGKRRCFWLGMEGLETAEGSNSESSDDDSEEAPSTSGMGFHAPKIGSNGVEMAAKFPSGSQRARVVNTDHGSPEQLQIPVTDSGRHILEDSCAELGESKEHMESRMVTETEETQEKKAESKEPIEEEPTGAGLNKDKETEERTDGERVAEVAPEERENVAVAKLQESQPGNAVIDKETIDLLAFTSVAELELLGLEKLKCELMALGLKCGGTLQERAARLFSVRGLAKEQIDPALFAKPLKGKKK

Assays:
Assay in all cases: log2 fold change, soluble protein after heating vs DMSO (PISA); higher = thermal stabilisation; K562 cells, 10 uM, 30 min; active = over 0.2 and 3.5 SD of the protein, either way, in both replicates (recomputed)
erlotinib = compound: C#Cc1cccc(Nc2ncnc3cc(OCCOC)c(OCCOC)cc23)c1 [erlotinib]
Outline: (§1)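 For each measurement, 10 μM compound was applied for 30 min to K562 cells at 2×10^6 cells/mL. Aliquots were heated for 3 min across 48°C-58°C, pooled, and extracted in PBS with 0.5% NP-40 at 4°C; the supernatant after 21,000xg for 90 min was soluble protein. This was quantified by TMTpro 16plex LC-MS/MS with channel sums equalised, and thermal stability was reported relative to control samples from duplicates, on a log2 fold-change scale.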

[1] = compound: C/C(=N\NC(=O)C1=CC(=CC=C1)S(=O)(=O)N2CCOCC2)/C3=C(C=CC(=C3)Cl)O
Outline: as §1

[2] = compound: C1=CC(=C(C=C1Cl)C2=NC3=NC=CN=C3C(=N2)NC4=CC=NC=C4)F
Outline: as §1

[3] = compound: C1=CC(=CC=C1C2=NC3=C(N2)C=C(C=C3)C(=O)N)OC4=CC=C(C=C4)Cl
Outline: as §1

[4] = compound: C1=CC2=C(C=CC(=C2)/C=C\3/C(=O)NC(=NCC4=CC=CS4)S3)N=C1
Outline: as §1

[5] = compound: C1=CC2=NC=CN=C2C=C1/C=C/3\C(=O)NC(=O)S3
Outline: as §1

[6] = compound: C1=CC=C(C=C1)C2=NC(=C(N2)C3=CC=NC=C3)C4=CC(=C(C=C4)Cl)O
Outline: as §1

[7] = compound: C1=CC=C2C(=C1)C3=NNC4=CC=CC(=C43)C2=O
Outline: as §1

[8] = compound: C1CCN(C1)C(=O)NC2=CC=CC(=C2)NC3=NC=C(C(=N3)NCCC4=CN=CN4)Br
Outline: as §1

[9] = compound: C1CN(CCC1(CC2=CC=C(C=C2)Cl)N)C3=NC=NC4=C3C=CN4
Outline: as §1

IRAK-1-4 Inhibitor I = compound: C1COCCN1CCN2C3=CC=CC=C3N=C2NC(=O)C4=CC(=CC=C4)[N+](=O)[O-] [IRAK-1-4 Inhibitor I]
Outline: as §1

ibrutinib = compound: C=CC(=O)N1CCC[C@@H](n2nc(-c3ccc(Oc4ccccc4)cc3)c3c(N)ncnc32)C1 [ibrutinib]
Outline: as §1

[10] = compound: CC(=O)c1cnc2ccc(-c3cc(Cl)c(O)c(Cl)c3)nc2c1N[C@H]1CC[C@H](CN(C)C)CC1
Outline: as §1

ralimetinib = compound: CC(C)(C)Cn1c(N)nc2ccc(-c3[nH]c(C(C)(C)C)nc3-c3ccc(F)cc3)nc21 [ralimetinib]
Outline: as §1

[11] = compound: CC(C)(O)CC(=O)NCCn1ccc2ncnc(Nc3ccc(Oc4cccc(C(F)(F)F)c4)c(Cl)c3)c21
Outline: as §1

[12] = compound: CC(C)C1=C2N=C(C=C(N2N=C1)NCC3=CC=CC=C3)NCCCCCCN
Outline: as §1

[13] = compound: CC(C)C[C@@H](C=O)NC(=O)[C@H](CC(C)C)NC(=O)[C@H](CC(C)C)NC(=O)OCc1ccccc1
Outline: as §1

pinometostat = compound: CC(C)N(C[C@H]1O[C@@H](n2cnc3c(N)ncnc32)[C@H](O)[C@@H]1O)[C@H]1C[C@@H](CCc2nc3cc(C(C)(C)C)ccc3[nH]2)C1 [pinometostat]
Outline: as §1

[14] = compound: CC1=C(C(CC(=O)N1)C2=CC=C(C=C2)C(F)(F)F)C(=O)NC3=C(C=C4C(=C3)C=NN4)F
Outline: as §1

[15] = compound: CC1=C(C2=C(C=C1)C(=O)C3=CC=CC=C3N2CCCN)C
Outline: as §1

Measured: log2 fold change

RSU1 (UniProt Q15404)
inactive: erlotinib 0.013 | [1] -0.017 | [2] 0.006 | [3] 0.007 | [4] 0.017 | [5] 0.024 | [6] -0.019 | [7] -0.005 | [8] 0.011 | [9] 0.014 | IRAK-1-4 Inhibitor I 0.047 | ibrutinib 0.002 | [10] -0.021 | ralimetinib -0.045 | [11] 0.006 | [12] 0.04 | [13] -0.042 | pinometostat -0.031 | [14] -0.014 | [15] 0.021

RUVBL1 (UniProt Q9Y265)
inactive: erlotinib -0.007 | [1] -0.013 | [2] 0.03 | [3] 0.013 | [4] -0.007 | [5] 0.039 | [6] -0.038 | [7] -0.005 | [8] 0.02 | [9] 0.02 | IRAK-1-4 Inhibitor I 0.031 | ibrutinib 0.025 | [10] 0.07 | ralimetinib -0.007 | [11] 0.035 | [12] 0.109 | [13] -0.005 | pinometostat -0.023 | [14] -0.02 | [15] -0.049

SCAMP4 (UniProt Q969E2)
inactive: erlotinib 0.002 | [1] -0.028 | [2] 0.01 | [3] 0.018 | [4] 0.024 | [5] 0.017 | [6] 0.008 | [7] -0.089 | [8] 0.019 | [9] 0.142 | IRAK-1-4 Inhibitor I 0.034 | ibrutinib 0.039 | [10] 0.024 | ralimetinib -0.025 | [11] 0 | [12] 0.028 | [13] 0.043 | pinometostat -0.022 | [14] 0.027 | [15] 0.063

SDHA (UniProt P31040)
inactive: erlotinib 0.001 | [1] 0.009 | [2] 0.052 | [3] -0.002 | [4] -0.039 | [5] 0.018 | [6] 0.014 | [7] -0.004 | [8] 0.016 | [9] 0.042 | IRAK-1-4 Inhibitor I 0.002 | ibrutinib 0.017 | [10] 0.031 | ralimetinib -0.032 | [11] -0.027 | [12] 0.058 | [13] 0 | pinometostat -0.06 | [14] 0.013 | [15] -0.019

SEC11C (UniProt Q9BY50)
inactive: erlotinib -0.004 | [1] -0.012 | [2] -0.046 | [3] -0.04 | [4] 0.082 | [5] 0.031 | [6] 0.023 | [7] -0.051 | [8] -0.016 | [9] -0.069 | IRAK-1-4 Inhibitor I 0.021 | ibrutinib 0.034 | [10] 0.004 | ralimetinib 0.013 | [11] -0.012 | [12] -0.1 | [13] 0.021 | pinometostat 0.084 | [14] -0.011 | [15] 0.015

SEC24C (UniProt P53992)
inactive: erlotinib -0.021 | [1] 0.087 | [2] 0.064 | [3] 0.016 | [4] 0.035 | [5] 0.033 | [6] 0.043 | [7] 0.016 | [8] -0.011 | [9] -0.01 | IRAK-1-4 Inhibitor I -0.048 | ibrutinib -0.049 | [10] -0.001 | ralimetinib -0.003 | [11] -0.095 | [12] -0.079 | [13] -0.036 | pinometostat -0.019 | [14] 0 | [15] 0.036

RYBP (UniProt Q8N488)
inactive: erlotinib 0.086 | [1] -0.079 | [2] 0.004 | [3] -0.045 | [4] -0.023 | [5] 0 | [6] -0.033 | [7] -0.087 | [8] 0.017 | [9] 0.035 | IRAK-1-4 Inhibitor I 0.047 | ibrutinib 0.033 | [10] 0 | ralimetinib -0.042 | [11] 0.105 | [12] 0.075 | [13] 0.051 | pinometostat -0.026 | [14] 0.05 | [15] -0.09

SCYL2 (UniProt Q6P3W7)
inactive: erlotinib 0.014 | [1] 0.032 | [2] 0.072 | [3] -0.005 | [4] 0.02 | [5] 0.03 | [6] -0.013 | [7] 0.029 | [8] -0.003 | [9] -0.003 | IRAK-1-4 Inhibitor I 0.003 | ibrutinib -0.021 | [10] -0.02 | ralimetinib -0.031 | [11] -0.029 | [12] -0.008 | [13] 0.004 | pinometostat 0.015 | [14] 0.003 | [15] 0.033

SEC23B (UniProt Q15437)
inactive: erlotinib -0.013 | [1] 0.091 | [2] 0.018 | [3] -0.044 | [4] -0.002 | [5] 0.03 | [6] 0.046 | [7] -0.01 | [8] -0.016 | [9] 0.007 | IRAK-1-4 Inhibitor I -0.01 | ibrutinib 0.001 | [10] -0.014 | ralimetinib 0.022 | [11] -0.02 | [12] 0.01 | [13] -0.018 | pinometostat -0.031 | [14] 0.006 | [15] 0.016

SEC22B (UniProt O75396)
inactive: erlotinib -0.032 | [1] 0.059 | [2] 0.027 | [3] -0.034 | [4] -0.023 | [5] 0.015 | [6] 0.044 | [7] 0.076 | [8] -0.038 | [9] 0.005 | IRAK-1-4 Inhibitor I 0.007 | ibrutinib -0.038 | [10] -0.004 | ralimetinib 0.024 | [11] 0.027 | [12] 0.009 | [13] -0.054 | pinometostat -0.05 | [14] -0.052 | [15] 0.031

SCARB1 isoform 2 (UniProt Q8WTV0)
inactive: erlotinib 0.028 | [1] 0.02 | [2] 0.036 | [3] 0.005 | [4] 0.016 | [5] 0.058 | [6] 0.056 | [7] 0.012 | [8] 0.009 | [9] 0.041 | IRAK-1-4 Inhibitor I 0.027 | ibrutinib 0.043 | [10] -0.007 | ralimetinib -0.076 | [11] -0.056 | [12] 0.01 | [13] -0.037 | pinometostat -0.049 | [14] -0.004 | [15] 0.046

SAMHD1 (UniProt Q9Y3Z3)
inactive: erlotinib 0.052 | [1] -0.009 | [2] 0.026 | [3] 0 | [4] 0.029 | [5] 0.013 | [6] -0.017 | [7] 0.022 | [8] -0.017 | [9] 0.087 | IRAK-1-4 Inhibitor I 0.003 | ibrutinib 0.001 | [10] -0.049 | ralimetinib -0.032 | [11] -0.015 | [12] -0.035 | [13] 0.021 | pinometostat -0.006 | [14] 0.05 | [15] 0.091

2 records drawn at random from those above, as already listed:
SAMHD1 (UniProt Q9Y3Z3)
inactive: erlotinib 0.052 | [1] -0.009 | [2] 0.026 | [3] 0 | [4] 0.029 | [5] 0.013 | [6] -0.017 | [7] 0.022 | [8] -0.017 | [9] 0.087 | IRAK-1-4 Inhibitor I 0.003 | ibrutinib 0.001 | [10] -0.049 | ralimetinib -0.032 | [11] -0.015 | [12] -0.035 | [13] 0.021 | pinometostat -0.006 | [14] 0.05 | [15] 0.091

SEC23B (UniProt Q15437)
inactive: erlotinib -0.013 | [1] 0.091 | [2] 0.018 | [3] -0.044 | [4] -0.002 | [5] 0.03 | [6] 0.046 | [7] -0.01 | [8] -0.016 | [9] 0.007 | IRAK-1-4 Inhibitor I -0.01 | ibrutinib 0.001 | [10] -0.014 | ralimetinib 0.022 | [11] -0.02 | [12] 0.01 | [13] -0.018 | pinometostat -0.031 | [14] 0.006 | [15] 0.016

Further results

S100P (UniProt P25815)
inactive: erlotinib -0.108 | [1] 0.034 | [2] 0.261 | [3] 0.051 | [4] 0.028 | [5] 0.053 | [6] 0.022 | [7] -0.082 | [8] -0.02 | [9] -0.089 | IRAK-1-4 Inhibitor I -0.016 | ibrutinib -0.039 | [10] -0.017 | ralimetinib 0.01 | [11] 0.022 | [12] 0.05 | [13] -0.148 | pinometostat -0.139 | [14] -0.021 | [15] 0.315

SCNM1 (UniProt Q9BWG6)
inactive: erlotinib 0.043 | [1] -0.13 | [2] -0.003 | [3] -0.027 | [4] -0.098 | [5] 0.12 | [6] 0.154 | [7] 0 | [8] 0.046 | [9] 0.024 | IRAK-1-4 Inhibitor I -0.023 | ibrutinib -0.114 | [10] -0.032 | ralimetinib 0.028 | [11] 0.092 | [12] 0.06 | [13] 0.231 | pinometostat -0.091 | [14] -0.036 | [15] 0.055

SARNP (UniProt P82979)
inactive: erlotinib 0.008 | [1] -0.149 | [2] -0.026 | [3] 0 | [4] -0.01 | [5] 0.014 | [6] -0.162 | [7] -0.093 | [8] 0.062 | [9] -0.006 | IRAK-1-4 Inhibitor I 0.057 | ibrutinib 0.055 | [10] 0.021 | ralimetinib -0.095 | [11] 0.076 | [12] 0.17 | [13] 0.14 | pinometostat 0 | [14] 0.035 | [15] -0.005

SDE2 (UniProt Q6IQ49)
inactive: erlotinib -0.033 | [1] -0.016 | [2] -0.064 | [3] 0.019 | [4] -0.028 | [5] 0.001 | [6] -0.037 | [7] -0.038 | [8] -0.001 | [9] 0.002 | IRAK-1-4 Inhibitor I 0.006 | ibrutinib 0.003 | [10] 0.057 | ralimetinib -0.029 | [11] 0.022 | [12] 0.025 | [13] -0.002 | pinometostat 0.006 | [14] -0.009 | [15] 0.013
